Results taken from paper PMC7229175.
Results are given in words; binding and its absence hold for the method and conditions named. In cells and extracts the contact can be indirect. A result given as binding can be weak or reduced; the word gives no strength.

Sequences of proteins named here, by UniProt entry; tags and fusion partners are left off. A change or cut given only in a name is not applied to a line headed by its entry.
UniProt Q9UJY5: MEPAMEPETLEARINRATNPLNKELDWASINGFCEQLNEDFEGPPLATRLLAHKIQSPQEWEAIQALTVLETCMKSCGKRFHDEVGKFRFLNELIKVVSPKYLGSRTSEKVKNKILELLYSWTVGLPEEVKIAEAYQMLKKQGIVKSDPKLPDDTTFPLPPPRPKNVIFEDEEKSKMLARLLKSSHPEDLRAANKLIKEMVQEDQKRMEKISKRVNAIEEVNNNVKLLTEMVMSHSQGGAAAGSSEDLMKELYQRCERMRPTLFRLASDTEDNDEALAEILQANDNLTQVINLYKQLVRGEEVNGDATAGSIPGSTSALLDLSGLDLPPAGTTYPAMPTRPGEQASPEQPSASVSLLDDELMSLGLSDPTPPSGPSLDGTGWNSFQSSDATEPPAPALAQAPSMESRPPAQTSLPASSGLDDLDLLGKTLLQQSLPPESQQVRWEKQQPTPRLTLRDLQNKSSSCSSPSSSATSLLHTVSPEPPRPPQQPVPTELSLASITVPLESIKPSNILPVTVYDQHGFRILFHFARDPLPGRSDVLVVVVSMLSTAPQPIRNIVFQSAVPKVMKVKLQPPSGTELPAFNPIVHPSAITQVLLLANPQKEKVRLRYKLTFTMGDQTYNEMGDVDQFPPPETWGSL
UniProt P61205: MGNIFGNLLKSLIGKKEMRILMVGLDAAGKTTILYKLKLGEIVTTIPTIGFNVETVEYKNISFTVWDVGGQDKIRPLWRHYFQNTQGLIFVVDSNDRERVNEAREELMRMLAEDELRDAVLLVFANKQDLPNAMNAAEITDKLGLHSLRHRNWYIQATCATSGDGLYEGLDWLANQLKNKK

Target: ARF-binding domain of GGA1 protein fused with GST (GST-GGA1) (UniProt Q9UJY5)
Assay: pull-down; lysates of WT and BIG1-/- BMDMs treated with LPS (100 ng/ml, 30 min); GTP-bound ARF3 pulled down by GST-GGA1 (ARF-binding domain), western blot; only the target purified

binding: binds
Substance: endogenous ARF3 (from UniProt P61205 1-181)
